In patent US8026262B2, “Chemical compounds” (GlaxoSmithKline LLC, priority 2006, dated 2011):
Some of these results come from one statement about several compounds together.

Experiments:
human AR = molecular target: T1, human AR (Homo sapiens, UniProt P10275); test: AR functional assay (agonist mode), MMTV luciferase reporter in transfected CV-1 cells; type: cell-based; conditions: CV-1 cells transfected with human AR and MMTV luciferase, values said to be exemplary only
T1 sequence (P10275 560-920 limits assumed): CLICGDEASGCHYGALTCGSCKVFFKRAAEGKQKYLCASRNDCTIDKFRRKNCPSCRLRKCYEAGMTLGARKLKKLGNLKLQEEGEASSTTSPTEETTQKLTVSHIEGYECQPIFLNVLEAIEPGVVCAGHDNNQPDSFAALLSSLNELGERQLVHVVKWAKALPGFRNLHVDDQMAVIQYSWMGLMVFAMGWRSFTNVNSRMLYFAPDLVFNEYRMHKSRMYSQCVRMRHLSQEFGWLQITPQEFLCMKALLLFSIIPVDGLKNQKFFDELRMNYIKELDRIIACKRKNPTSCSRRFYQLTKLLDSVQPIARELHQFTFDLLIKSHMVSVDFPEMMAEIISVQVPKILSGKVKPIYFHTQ

androgen receptor = molecular target: T2, androgen receptor (Rattus norvegicus, UniProt P15207); test: Castrated male rat model (ORX rat); type: in vivo; conditions: castrated male rats; for prostate sparing (ratio of levator ani ED50 to prostate ED50): ED50 = 50% of the maximum response above the vehicle treated castrate level; for levator ani hypertrophy (levator ani weight): compared to vehicle-treated castrates, dosed orally at up to 10 mg/kg/day
T2 construct: from tissue; host or cells: live castrated male Sprague-Dawley rats; levator ani, bulbocavernosus, ventral prostate, seminal vesicles
T2 sequence (P15207 1-902): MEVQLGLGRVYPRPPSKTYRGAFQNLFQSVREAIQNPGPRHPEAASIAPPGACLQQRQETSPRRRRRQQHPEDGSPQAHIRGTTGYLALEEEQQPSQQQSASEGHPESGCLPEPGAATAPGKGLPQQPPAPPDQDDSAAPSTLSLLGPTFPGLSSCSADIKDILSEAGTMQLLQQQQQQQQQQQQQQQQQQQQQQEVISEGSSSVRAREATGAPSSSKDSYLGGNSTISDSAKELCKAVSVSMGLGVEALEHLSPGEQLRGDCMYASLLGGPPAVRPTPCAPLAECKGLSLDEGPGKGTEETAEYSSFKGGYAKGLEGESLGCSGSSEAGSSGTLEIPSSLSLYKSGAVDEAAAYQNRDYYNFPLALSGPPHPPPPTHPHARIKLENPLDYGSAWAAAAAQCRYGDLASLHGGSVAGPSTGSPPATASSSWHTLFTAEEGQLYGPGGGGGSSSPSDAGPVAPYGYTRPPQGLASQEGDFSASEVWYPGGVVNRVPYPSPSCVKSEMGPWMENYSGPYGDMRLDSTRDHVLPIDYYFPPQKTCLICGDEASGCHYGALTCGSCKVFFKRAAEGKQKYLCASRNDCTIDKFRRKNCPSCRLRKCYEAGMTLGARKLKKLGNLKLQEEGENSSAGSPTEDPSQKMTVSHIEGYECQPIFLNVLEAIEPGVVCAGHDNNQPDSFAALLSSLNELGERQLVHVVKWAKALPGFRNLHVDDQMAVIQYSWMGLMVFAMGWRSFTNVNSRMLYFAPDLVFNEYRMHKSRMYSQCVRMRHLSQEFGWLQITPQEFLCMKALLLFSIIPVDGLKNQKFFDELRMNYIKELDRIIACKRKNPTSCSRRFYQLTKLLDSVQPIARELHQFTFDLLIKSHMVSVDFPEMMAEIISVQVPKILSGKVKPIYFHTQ

Structure (SMILES) | pIC50 in the agonist mode of the AR functional assay (human AR) | prostate sparing (ratio of levator ani ED50 to prostate ED50) (androgen receptor) | levator ani hypertrophy (levator ani weight) (androgen receptor)
N#Cc1ccc2c(cc(C(F)F)n2Cc2noc(-c3cc(F)cc(F)c3)n2)c1Cl [Example 23, 4-Chloro-2-(difluoromethyl)-1-{[5-(3,5-difluorophenyl)-1,2,4-oxadiazol-3-yl]methyl}-1H-indole-5-carbonitrile] | ≥ 5.01 | spared the prostate (at least a 2:1 ratio of levator ani ED50 to prostate ED50) | favorable levator anti-hypertrophy (show a 30% or greater increase in levator ani weight when compared to vehicle-treated castrates and dosed orally at up to 10 mg/kg/day)
N#Cc1ccc2c(cc(C(F)F)n2Cc2nnc(-c3cncc(Br)c3)o2)c1Cl [Example 25, 1-{[5-(5-Bromo-3-pyridinyl)-1,3,4-oxadiazol-2-yl]methyl}-4-chloro-2-(difluoromethyl)-1H-indole-5-carbonitrile] | ≥ 5.01 | spared the prostate (at least a 2:1 ratio of levator ani ED50 to prostate ED50) | favorable levator anti-hypertrophy (show a 30% or greater increase in levator ani weight when compared to vehicle-treated castrates and dosed orally at up to 10 mg/kg/day)
N#Cc1ccc2c(cc(C(F)F)n2Cc2noc(-c3cc(C(F)(F)F)cc(C(F)(F)F)c3)n2)c1Cl [Example 41, 1-({5-[3,5-Bis(trifluoromethyl)phenyl]-1,2,4-oxadiazol-3-yl}methyl)-4-chloro-2-(difluoromethyl)-1H-indole-5-carbonitrile] | ≥ 5.01 | spared the prostate (at least a 2:1 ratio of levator ani ED50 to prostate ED50) | favorable levator anti-hypertrophy (show a 30% or greater increase in levator ani weight when compared to vehicle-treated castrates and dosed orally at up to 10 mg/kg/day)
N#Cc1ccc2c(ccn2Cc2noc(-c3cccc(C(F)(F)F)c3)n2)c1C(F)(F)F [Example 60, 4-(Trifluoromethyl)-1-({5-[3-(trifluoromethyl)phenyl]-1,2,4-oxadiazol-3-yl}methyl)-1H-indole-5-carbonitrile] | ≥ 5.01 | spared the prostate (at least a 2:1 ratio of levator ani ED50 to prostate ED50) | favorable levator anti-hypertrophy (show a 30% or greater increase in levator ani weight when compared to vehicle-treated castrates and dosed orally at up to 10 mg/kg/day)
Cc1cc2c(C(F)(F)F)c(C#N)ccc2n1Cc1noc(-c2cccc(C(F)(F)F)c2)n1 [Example 124, 2-Methyl-4-(trifluoromethyl)-1-({5-[3-(trifluoromethyl)phenyl]-1,2,4-oxadiazol-3-yl}methyl)-1H-indole-5-carbonitrile] | ≥ 5.01 | spared the prostate (at least a 2:1 ratio of levator ani ED50 to prostate ED50) | favorable levator anti-hypertrophy (show a 30% or greater increase in levator ani weight when compared to vehicle-treated castrates and dosed orally at up to 10 mg/kg/day)
N#Cc1ccc2c(cc(C3CC3)n2Cc2nnc(-c3cccc(C(F)(F)F)c3)[nH]2)c1C(F)(F)F [Example 368, 2-Cyclopropyl-4-(trifluoromethyl)-1-({3-[3-(trifluoromethyl)phenyl]-1H-1,2,4-triazol-5-yl}methyl)-1H-indole-5-carbonitrile] | ≥ 5.01 | – | –
N#Cc1ccc2c(cc(C3CC3)n2Cc2coc(-c3cccc(C(F)(F)F)c3)n2)c1C(F)(F)F [Example 369, 2-Cyclopropyl-4-(trifluoromethyl)-1-({2-[3-(trifluoromethyl)phenyl]-1,3-oxazol-4-yl}methyl)-1H-indole-5-carbonitrile] | ≥ 5.01 | – | –
Cc1cc2c(C(F)(F)F)c(C#N)ccc2n1Cc1cnc(-c2cccc(C(F)(F)F)c2)o1 [Example 370, 2-Methyl-4-(trifluoromethyl)-1-({2-[3-(trifluoromethyl)phenyl]-1,3-oxazol-5-yl}methyl)-1H-indole-5-carbonitrile] | ≥ 5.01 | – | –
N#Cc1ccc2c(cc(C3CC3)n2Cc2noc(-c3cncc(C(F)(F)F)c3)n2)c1C(F)(F)F [Example 372, 2-Cyclopropyl-4-(trifluoromethyl)-1-({5-[5-(trifluoromethyl)-3-pyridinyl]-1,2,4-oxadiazol-3-yl}methyl)-1H-indole-5-carbonitrile] | ≥ 5.01 | – | –
N#Cc1ccc2c(cc(C(F)(F)F)n2Cc2noc(-c3cc(C(F)(F)F)cc(C(F)(F)F)c3)n2)c1C(F)(F)F [Example 373, 1-({5-[3,5-bis(Trifluoromethyl)phenyl]-1,2,4-oxadiazol-3-yl}methyl)-2,4-bis(trifluoromethyl)-1H-indole-5-carbonitrile] | ≥ 5.01 | – | –
N#Cc1ccc2c(cc(CC(F)(F)F)n2Cc2noc(-c3cc(C(F)(F)F)cc(C(F)(F)F)c3)n2)c1C(F)(F)F [Example 374, 1-({5-[3,5-bis(Trifluoromethyl)phenyl]-1,2,4-oxadiazol-3-yl}methyl)-2-(2,2,2-trifluoroethyl)-4-(trifluoromethyl)-1H-indole-5-carbonitrile] | ≥ 5.01 | – | –
N#Cc1ccc2c(cc(CC(F)(F)F)n2CC(N)=O)c1C(F)(F)F [Example 375, 2-[5-Cyano-2-(2,2,2-trifluoroethyl)-4-(trifluoromethyl)-1H-indol-1-yl]acetamide] | ≥ 5.01 | – | –
N#Cc1ccc2c(cc(CC(F)(F)F)n2Cc2noc(-c3cccc(C(F)(F)F)c3)n2)c1C(F)(F)F [Example 377, 2-(2,2,2-Trifluoroethyl)-4-(trifluoromethyl)-1-({5-[3-(trifluoromethyl)phenyl]-1,2,4-oxadiazol-3-yl}methyl)-1H-indole-5-carbonitrile] | ≥ 5.01 | – | –
N#Cc1ccc2c(cc(CC(F)(F)F)n2Cc2nnc(-c3cncc(Br)c3)o2)c1C(F)(F)F [Example 378, 1-{[5-(5-Bromo-3-pyridinyl)-1,3,4-oxadiazol-2-yl]methyl}-2-(2,2,2-trifluoroethyl)-4-(trifluoromethyl)-1H-indole-5-carbonitrile] | ≥ 5.01 | – | –
CC(F)(F)c1cc2c(C(F)(F)F)c(C#N)ccc2n1Cc1noc(-c2cc(F)cc(F)c2)n1 [Example 379, 2-(1,1-Difluoroethyl)-1-{[5-(3,5-difluorophenyl)-1,2,4-oxadiazol-3-yl]methyl}-4-(trifluoromethyl)-1H-indole-5-carbonitrile] | ≥ 5.01 | – | –
CC(F)(F)c1cc2c(C(F)(F)F)c(C#N)ccc2n1Cc1noc(-c2cccc(C(F)(F)F)c2)n1 [Example 380, 2-(1,1-Difluoroethyl)-4-(trifluoromethyl)-1-({5-[3-(trifluoromethyl)phenyl]-1,2,4-oxadiazol-3-yl}methyl)-1H-indole-5-carbonitrile] | ≥ 5.01 | – | –
CC(F)(F)c1cc2c(C(F)(F)F)c(C#N)ccc2n1Cc1nnc(-c2cncc(Br)c2)o1 [Example 381, 1-{[5-(5-Bromo-3-pyridinyl)-1,3,4-oxadiazol-2-yl]methyl}-2-(1,1-difluoroethyl)-4-(trifluoromethyl)-1H-indole-5-carbonitrile] | ≥ 5.01 | – | –
CC(F)(F)c1cc2c(C(F)(F)F)c(C#N)ccc2n1Cc1noc(-c2cc(C(F)(F)F)cc(C(F)(F)F)c2)n1 [Example 382, 1-({5-[3,5-bis(Trifluoromethyl)phenyl]-1,2,4-oxadiazol-3-yl}methyl)-2-(1,1-difluoroethyl)-4-(trifluoromethyl)-1H-indole-5-carbonitrile] | ≥ 5.01 | – | –
CC(F)(F)c1cc2c(C(F)(F)F)c(C#N)ccc2n1CC(N)=O [Example 383, 2-[5-Cyano-2-(1,1-difluoroethyl)-4-(trifluoromethyl)-1H-indol-1-yl]acetamide] | ≥ 5.01 | – | –
